Each structure is given as a SMILES string. This is one part of the list. Single values are uncertain, as repeats are few or missing.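 Imaging used 1,536-well plates; nuclei positive for cleaved PARP by antibody were divided by total DNA-stained nuclei to yield the apoptosis fraction. Doses for screening kept most cells viable, and cell lines differ markedly in resting and induced cleaved-PARP levels.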

This assay concerns SkMel5. Briefly: cleaved PARP positive nuclei fraction relative to DMSO control; melanoma cells; higher = more apoptosis. As to conditions: library dose: low library concentration; 72 h.
`Nc1cccc2c1CN(C1CCC(=O)NC1=O)C2=O` (configuration not stated) [lenalidomide] + Oc1nc(-c2ccc(C(F)(F)F)cc2)nc2c1CSCC2 [XAV939] (first compound 1 µM, partner dose 2 µM): the “cleaved PARP positive nuclei fraction” value turned out to be 64.8%.

Consider `Cn1c(Nc2ccc(C(F)(F)F)cc2)nc2cc(Oc3ccnc(-c4ncc(C(F)(F)F)[nH]4)c3)ccc21` + COc1ccc(COc2ccc(Cc3cnc(N)nc3N)cc2OC)cc1 [GW2580] (first compound 0.08 µM, partner dose 1 µM), for which the “cleaved PARP positive nuclei fraction” value amounted to 136%. Next, `C[C@]1(c2nc3c(C(N)=O)cccc3[nH]2)CCCN1` [Veliparib] + CC(C)CCN1c2nc(Nc3cc(F)c(O)c(F)c3)ncc2N(C)C(=O)C1C [BID1870] (first compound 1.4 µM, partner dose 0.2 µM): 18%; `C=CCn1c(=O)c2cnc(Nc3ccc(N4CCN(C)CC4)cc3)nc2n1-c1cccc(C(C)(C)O)n1` + CCc1ccc(CCOc2ccc(CC3SC(=O)NC3=O)cc2)nc1 [pioglitazone] (first compound 0.02 µM, partner dose 2 µM): 224%. Turning to `C=CCn1c(=O)c2cnc(Nc3ccc(N4CCN(C)CC4)cc3)nc2n1-c1cccc(C(C)(C)O)n1` + COC(=O)c1sccc1S(=O)(=O)Nc1ccc(Nc2ccccc2)cc1OC [GSK0660] (first compound 0.02 µM, partner dose 1 µM), the “cleaved PARP positive nuclei fraction” value came out at 103%. As for `C#Cc1cccc(Nc2ncnc3cc(OCCOC)c(OCCOC)cc23)c1` [erlotinib] + COc1ccc2c(c1)CCC1C2CCC2(C)C(NCCCCCCN3C(=O)C=CC3=O)CCC12 [U73122] (first compound 0.8 µM, partner dose 0.4 µM), the figure is 26.7%.

Turning to `C=CCn1c(=O)c2cnc(Nc3ccc(N4CCN(C)CC4)cc3)nc2n1-c1cccc(C(C)(C)O)n1` + O=C1NC(=O)/C(=C/c2ccc(-c3ccc(F)cc3O)o2)S1 [AS252424] (first compound 0.02 µM, partner dose 1 µM), the “cleaved PARP positive nuclei fraction” value was determined as 58.9%.

`CC1(C)NC(=O)N(c2ccc([N+](=O)[O-])c(C(F)(F)F)c2)C1=O` [nilutamide] + COc1ccc(-c2ccc3c(N4CCOCC4)nc(N4C[C@@H](C)O[C@@H](C)C4)nc3n2)cc1CO [KU0063794] (first compound 1 µM, partner dose 0.02 µM): the “cleaved PARP positive nuclei fraction” value worked out at 35%. As for `CC(C)(C)c1cnc(CSc2cnc(NC(=O)C3CCNCC3)s2)o1` + Oc1nc(-c2ccc(C(F)(F)F)cc2)nc2c1CSCC2 [XAV939] (first compound 0.01 µM, partner dose 2 µM), the figure is 59.3%; as for `COCC[n+]1c2c(n(Cc3cnccn3)c1C)C(=O)c1ccccc1C2=O` + COc1ccc(COc2ccc(Cc3cnc(N)nc3N)cc2OC)cc1 [GW2580] (first compound 0.0004 µM, partner dose 1 µM), 33.6%; as for `Nc1cccc2c1CN(C1CCC(=O)NC1=O)C2=O` (configuration not stated) [lenalidomide] + COc1cc2ncnc(Nc3ccc(Oc4ccccc4)cc3)c2cc1OC [SrcI1] (first compound 1 µM, partner dose 2 µM), 130%.

For `CO[C@@H]1[C@H](N(C)C(=O)c2ccccc2)C[C@H]2O[C@]1(C)n1c3ccccc3c3c4c(c5c6ccccc6n2c5c31)C(=O)NC4` [Midostaurin] + COc1ccc2c(c1)CCC1C2CCC2(C)C(NCCCCCCN3C(=O)C=CC3=O)CCC12 [U73122] (first compound 0.08 µM, partner dose 0.4 µM), the “cleaved PARP positive nuclei fraction” value is 179%.

For the origin of these results see the supplement of paper PMC4604168 (melanoma cell lines).
